The list shows a part of the results.
Experiments:
Experiment in all cases: log2 fold change, soluble protein after heating vs DMSO (PISA); higher = thermal stabilisation; K562 lysate, 10 uM; active = over 0.2 and 3.5 SD of the protein, either way, in both replicates (recomputed)
[1] = compound: c1cn2cc(-c3ccc4cn[nH]c4c3)nc(Nc3ccc(N4CCOCC4)cc3)c2n1 [entospletinib]
In short: (§1)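 To prepare the extract, K562 pellets were dounce-homogenised in PBS pH 7.4 with 1 mM MgCl2, giving crude material at 1 mg/mL protein. This was treated with 10 μM compound for 30 min, then heated in aliquots for 3 min over 48°C-58°C before pooling and addition of NP-40 to 0.5% at 4°C. Centrifugation at 21,000xg for 90 min left soluble protein in the supernatant, which TMTpro 16plex LC-MS/MS quantified with equalised channel sums. Results are log-two fold changes in thermal stability compared with solvent controls, from duplicates.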

Chains of the proteins cited; added tags and fusions are not shown. Lines headed by an entry give the natural chain unless they say otherwise; changes in a name come on top.
UniProt O15061: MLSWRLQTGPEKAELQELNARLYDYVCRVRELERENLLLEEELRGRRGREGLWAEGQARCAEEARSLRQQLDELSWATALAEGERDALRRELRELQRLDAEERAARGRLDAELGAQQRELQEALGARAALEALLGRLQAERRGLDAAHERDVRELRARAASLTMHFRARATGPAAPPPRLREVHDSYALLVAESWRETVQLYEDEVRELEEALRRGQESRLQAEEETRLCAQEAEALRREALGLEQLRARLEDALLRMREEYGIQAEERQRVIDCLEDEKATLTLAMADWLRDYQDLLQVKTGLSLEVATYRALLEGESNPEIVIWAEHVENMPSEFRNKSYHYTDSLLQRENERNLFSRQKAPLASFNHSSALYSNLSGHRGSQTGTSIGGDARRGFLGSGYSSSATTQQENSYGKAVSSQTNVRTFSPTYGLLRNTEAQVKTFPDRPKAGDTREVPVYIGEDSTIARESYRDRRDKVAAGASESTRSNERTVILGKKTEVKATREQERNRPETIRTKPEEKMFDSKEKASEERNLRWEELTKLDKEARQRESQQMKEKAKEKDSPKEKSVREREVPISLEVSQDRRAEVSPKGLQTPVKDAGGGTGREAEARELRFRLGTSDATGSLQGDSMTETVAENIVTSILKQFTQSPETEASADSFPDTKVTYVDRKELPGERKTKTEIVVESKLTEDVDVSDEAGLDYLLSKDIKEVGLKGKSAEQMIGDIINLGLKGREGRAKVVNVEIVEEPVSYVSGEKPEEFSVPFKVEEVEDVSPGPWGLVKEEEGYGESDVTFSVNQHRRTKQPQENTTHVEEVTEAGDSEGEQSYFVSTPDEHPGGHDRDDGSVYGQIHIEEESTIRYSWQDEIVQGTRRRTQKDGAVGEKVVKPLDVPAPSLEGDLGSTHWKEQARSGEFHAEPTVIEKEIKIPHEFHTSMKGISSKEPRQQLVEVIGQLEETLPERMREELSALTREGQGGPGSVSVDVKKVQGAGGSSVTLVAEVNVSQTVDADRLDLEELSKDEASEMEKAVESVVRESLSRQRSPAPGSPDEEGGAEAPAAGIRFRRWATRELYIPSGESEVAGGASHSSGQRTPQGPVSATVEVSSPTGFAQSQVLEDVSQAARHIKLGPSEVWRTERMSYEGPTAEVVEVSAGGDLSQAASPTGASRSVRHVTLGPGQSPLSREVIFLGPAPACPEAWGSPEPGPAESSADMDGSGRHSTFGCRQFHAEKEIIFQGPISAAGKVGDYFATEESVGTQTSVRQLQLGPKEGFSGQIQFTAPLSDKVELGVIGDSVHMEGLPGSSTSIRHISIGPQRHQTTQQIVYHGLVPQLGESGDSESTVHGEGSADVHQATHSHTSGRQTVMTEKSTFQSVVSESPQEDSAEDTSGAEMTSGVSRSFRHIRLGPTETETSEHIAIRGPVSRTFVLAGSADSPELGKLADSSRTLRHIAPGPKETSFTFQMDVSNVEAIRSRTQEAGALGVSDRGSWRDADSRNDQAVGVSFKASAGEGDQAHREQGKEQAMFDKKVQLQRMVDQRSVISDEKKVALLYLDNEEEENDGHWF
UniProt Q9UH99: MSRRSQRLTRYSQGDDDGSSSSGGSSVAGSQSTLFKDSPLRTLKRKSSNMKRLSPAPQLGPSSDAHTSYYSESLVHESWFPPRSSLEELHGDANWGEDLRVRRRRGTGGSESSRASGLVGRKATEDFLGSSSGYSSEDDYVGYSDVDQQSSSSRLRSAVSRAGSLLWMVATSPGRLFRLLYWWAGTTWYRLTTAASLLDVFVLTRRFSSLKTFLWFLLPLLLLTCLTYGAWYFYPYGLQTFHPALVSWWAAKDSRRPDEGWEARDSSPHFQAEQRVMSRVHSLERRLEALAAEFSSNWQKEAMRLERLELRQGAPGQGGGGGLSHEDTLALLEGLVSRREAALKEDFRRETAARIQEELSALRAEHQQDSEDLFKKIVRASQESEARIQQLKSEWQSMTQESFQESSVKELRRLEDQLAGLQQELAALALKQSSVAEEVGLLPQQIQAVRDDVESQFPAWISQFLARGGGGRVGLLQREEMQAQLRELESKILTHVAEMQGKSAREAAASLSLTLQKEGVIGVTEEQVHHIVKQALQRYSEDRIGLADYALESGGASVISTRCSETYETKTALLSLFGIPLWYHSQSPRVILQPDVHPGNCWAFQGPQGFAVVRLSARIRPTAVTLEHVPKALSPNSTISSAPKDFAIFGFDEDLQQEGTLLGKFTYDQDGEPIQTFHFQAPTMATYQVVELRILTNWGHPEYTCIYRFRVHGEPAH
UniProt Q6PIF2: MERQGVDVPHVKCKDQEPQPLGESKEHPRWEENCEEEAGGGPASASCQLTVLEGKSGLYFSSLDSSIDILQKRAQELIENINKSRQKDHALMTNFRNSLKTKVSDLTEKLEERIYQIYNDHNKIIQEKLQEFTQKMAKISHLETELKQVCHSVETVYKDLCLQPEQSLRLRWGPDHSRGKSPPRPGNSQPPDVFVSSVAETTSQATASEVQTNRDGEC
UniProt Q8TDR2: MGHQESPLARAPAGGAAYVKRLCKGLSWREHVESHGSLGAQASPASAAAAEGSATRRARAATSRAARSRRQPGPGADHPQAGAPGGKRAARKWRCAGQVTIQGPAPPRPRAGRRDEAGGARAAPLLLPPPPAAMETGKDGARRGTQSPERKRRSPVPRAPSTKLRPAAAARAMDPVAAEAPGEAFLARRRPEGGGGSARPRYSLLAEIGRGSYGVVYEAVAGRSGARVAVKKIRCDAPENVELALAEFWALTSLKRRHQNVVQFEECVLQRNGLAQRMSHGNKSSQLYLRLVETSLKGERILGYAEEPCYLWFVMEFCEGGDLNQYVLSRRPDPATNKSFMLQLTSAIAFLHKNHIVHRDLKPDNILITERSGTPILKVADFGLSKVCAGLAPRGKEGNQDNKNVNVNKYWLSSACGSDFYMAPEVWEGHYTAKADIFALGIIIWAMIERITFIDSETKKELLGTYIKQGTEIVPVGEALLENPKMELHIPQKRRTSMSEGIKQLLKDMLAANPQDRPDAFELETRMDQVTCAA
UniProt Q15573: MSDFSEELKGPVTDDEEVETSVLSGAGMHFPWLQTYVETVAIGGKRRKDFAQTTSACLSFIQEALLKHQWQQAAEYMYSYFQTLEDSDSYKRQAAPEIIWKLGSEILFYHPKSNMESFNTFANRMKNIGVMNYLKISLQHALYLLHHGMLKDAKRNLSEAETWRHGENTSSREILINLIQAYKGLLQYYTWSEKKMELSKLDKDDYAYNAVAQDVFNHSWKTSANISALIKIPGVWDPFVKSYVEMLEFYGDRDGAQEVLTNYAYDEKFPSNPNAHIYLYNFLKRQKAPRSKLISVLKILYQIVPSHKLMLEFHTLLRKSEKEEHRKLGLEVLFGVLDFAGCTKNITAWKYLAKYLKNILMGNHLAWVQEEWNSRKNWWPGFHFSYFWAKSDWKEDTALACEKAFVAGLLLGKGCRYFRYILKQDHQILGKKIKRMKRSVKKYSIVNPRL
UniProt O94804: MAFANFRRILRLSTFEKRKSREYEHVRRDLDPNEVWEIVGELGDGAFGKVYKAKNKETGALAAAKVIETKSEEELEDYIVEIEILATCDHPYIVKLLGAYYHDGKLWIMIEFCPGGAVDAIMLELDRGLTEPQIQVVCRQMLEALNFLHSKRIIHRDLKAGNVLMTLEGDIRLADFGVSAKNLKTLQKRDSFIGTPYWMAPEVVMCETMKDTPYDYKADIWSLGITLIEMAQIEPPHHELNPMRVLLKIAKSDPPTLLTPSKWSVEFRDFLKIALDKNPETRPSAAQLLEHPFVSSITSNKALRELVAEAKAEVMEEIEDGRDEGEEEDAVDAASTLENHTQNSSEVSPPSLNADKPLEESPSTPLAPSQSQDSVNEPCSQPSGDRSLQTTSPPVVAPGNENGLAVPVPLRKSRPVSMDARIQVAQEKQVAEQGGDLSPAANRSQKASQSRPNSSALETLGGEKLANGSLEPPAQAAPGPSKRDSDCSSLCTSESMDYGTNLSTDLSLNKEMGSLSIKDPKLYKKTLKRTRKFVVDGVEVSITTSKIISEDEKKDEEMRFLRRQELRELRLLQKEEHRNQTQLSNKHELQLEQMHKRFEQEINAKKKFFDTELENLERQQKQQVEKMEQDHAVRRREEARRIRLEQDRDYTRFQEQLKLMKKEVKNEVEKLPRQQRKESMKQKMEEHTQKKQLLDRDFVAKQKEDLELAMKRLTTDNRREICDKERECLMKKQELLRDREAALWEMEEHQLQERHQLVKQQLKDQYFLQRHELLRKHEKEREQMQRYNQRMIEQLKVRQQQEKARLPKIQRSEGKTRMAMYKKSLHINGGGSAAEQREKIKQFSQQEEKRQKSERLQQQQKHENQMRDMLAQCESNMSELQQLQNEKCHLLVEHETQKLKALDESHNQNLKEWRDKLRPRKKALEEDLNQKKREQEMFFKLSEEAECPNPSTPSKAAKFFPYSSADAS
UniProt Q13188: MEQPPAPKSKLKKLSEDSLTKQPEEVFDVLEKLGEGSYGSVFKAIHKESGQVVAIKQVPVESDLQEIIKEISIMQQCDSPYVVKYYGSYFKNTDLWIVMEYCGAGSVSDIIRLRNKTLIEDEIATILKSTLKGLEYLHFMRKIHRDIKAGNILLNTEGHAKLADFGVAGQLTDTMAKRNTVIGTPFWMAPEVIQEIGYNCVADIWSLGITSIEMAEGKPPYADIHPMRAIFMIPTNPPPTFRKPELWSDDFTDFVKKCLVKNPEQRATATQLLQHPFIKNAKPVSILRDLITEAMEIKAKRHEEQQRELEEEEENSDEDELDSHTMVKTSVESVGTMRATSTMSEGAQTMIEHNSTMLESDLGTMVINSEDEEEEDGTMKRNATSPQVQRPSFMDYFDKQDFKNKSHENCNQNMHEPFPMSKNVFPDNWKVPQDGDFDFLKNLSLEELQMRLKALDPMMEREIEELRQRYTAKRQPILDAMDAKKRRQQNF
UniProt O43759: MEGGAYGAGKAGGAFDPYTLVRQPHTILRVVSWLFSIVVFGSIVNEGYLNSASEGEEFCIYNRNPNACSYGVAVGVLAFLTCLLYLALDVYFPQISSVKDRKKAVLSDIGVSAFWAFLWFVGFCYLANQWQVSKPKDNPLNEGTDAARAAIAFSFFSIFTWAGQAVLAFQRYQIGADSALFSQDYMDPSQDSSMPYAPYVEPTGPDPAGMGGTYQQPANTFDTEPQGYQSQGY
UniProt Q15543, whole entry, looked up: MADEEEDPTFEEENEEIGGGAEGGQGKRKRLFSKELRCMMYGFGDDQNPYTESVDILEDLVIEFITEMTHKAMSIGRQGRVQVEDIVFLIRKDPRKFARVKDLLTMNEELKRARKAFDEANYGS
UniProt Q9Y2H1: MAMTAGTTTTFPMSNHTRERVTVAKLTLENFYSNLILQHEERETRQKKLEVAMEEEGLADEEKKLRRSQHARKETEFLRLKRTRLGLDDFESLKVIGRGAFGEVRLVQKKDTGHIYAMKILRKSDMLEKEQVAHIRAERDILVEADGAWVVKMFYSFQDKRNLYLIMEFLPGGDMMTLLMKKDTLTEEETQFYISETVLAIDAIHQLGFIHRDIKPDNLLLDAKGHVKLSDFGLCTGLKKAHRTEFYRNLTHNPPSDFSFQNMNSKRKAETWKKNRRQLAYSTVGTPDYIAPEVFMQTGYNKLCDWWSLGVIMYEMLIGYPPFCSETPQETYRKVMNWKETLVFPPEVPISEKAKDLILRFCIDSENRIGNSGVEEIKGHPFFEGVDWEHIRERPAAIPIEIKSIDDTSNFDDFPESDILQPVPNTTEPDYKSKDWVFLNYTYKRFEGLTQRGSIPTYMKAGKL
UniProt Q6NVH7: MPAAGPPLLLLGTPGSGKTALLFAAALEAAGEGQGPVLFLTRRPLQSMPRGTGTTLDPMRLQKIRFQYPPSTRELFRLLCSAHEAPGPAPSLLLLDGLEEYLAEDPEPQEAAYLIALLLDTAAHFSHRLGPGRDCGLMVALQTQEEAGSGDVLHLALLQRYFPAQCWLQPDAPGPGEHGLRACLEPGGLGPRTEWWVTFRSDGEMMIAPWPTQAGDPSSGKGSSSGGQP
UniProt Q8N300: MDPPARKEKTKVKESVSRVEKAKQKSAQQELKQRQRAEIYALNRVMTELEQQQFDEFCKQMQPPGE
UniProt Q9UEE5: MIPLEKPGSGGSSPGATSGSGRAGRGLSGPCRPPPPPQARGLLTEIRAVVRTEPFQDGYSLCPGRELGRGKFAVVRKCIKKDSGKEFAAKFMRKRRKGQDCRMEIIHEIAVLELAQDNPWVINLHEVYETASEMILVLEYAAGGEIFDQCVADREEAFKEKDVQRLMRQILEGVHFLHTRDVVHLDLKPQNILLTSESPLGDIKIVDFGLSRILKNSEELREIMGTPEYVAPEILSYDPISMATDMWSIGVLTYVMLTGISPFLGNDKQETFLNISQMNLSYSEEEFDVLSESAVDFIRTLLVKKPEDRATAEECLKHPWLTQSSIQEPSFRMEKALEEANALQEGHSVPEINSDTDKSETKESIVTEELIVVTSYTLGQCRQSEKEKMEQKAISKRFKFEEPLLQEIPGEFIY

[2] = compound: Cc1cn(-c2cc(NC(=O)c3ccc(C)c(Nc4nccc(-c5cccnc5)n4)c3)cc(C(F)(F)F)c2)cn1 [nilotinib]
In short: as §1

[3] = compound: Cc1nc(Nc2n[nH]c3c2CN(C(=O)N[C@H](CN(C)C)c2ccccc2)C3(C)C)c2sccc2n1
In short: as §1

[4] = compound: Cc1ncc(-c2ccnc(Nc3ccc(S(C)(=O)=O)cc3)n2)n1C(C)C
In short: as §1

[5] = compound: Cn1cc(CNCC2CCN(c3ncc(C(=O)NO)cn3)CC2)c2ccccc21 [quisinostat]
In short: as §1

[6] = compound: Cn1cncc1[C@@](N)(c1ccc(Cl)cc1)c1ccc2c(c1)c(-c1cccc(Cl)c1)cc(=O)n2C [tipifarnib]
In short: as §1

[7] = compound: NC(=O)Nc1cc(-c2cccc(F)c2)sc1C(=O)N[C@H]1CCCNC1
In short: as §1

[8] = compound: NC(=O)c1cnc(N[C@@H]2CCCC[C@@H]2N)nc1Nc1cccc(-n2nccn2)c1
In short: as §1

[9] = compound: NC1(c2ccc(-c3nc4ccn5c(=O)[nH]nc5c4cc3-c3ccccc3)cc2)CCC1
In short: as §1

[10] = compound: NCC(=O)Nc1ccc(-n2nc(C(F)(F)F)cc2-c2ccc3c(ccc4ccccc43)c2)cc1
In short: as §1

[11] = compound: O=C(CCCCCCC(=O)Nc1ccccc1)NO [vorinostat]
In short: as §1

[12] = compound: O=C(O)c1ccc2c(c1)nc(Nc1cccc(Cl)c1)c1ccncc12 [silmitasertib]
In short: as §1

[13] = compound: O=C1NC(=O)C(c2cnc3ccccn23)=C1c1cn2c3c(cc(F)cc13)CN(C(=O)N1CCCCC1)CC2
In short: as §1

[14] = compound: Cc1nc(Nc2ncc(C(=O)Nc3c(C)cccc3Cl)s2)cc(N2CCN(CCO)CC2)n1 [dasatinib]
In short: as §1

[15] = compound: Cn1cc(-c2ccc3c(c2)CCN3C(=O)Cc2cccc(C(F)(F)F)c2)c2c(N)ncnc21
In short: as §1

Measured: log2 fold change

SYNM (UniProt O15061)
inactive: [1] -0.081

STN1 (UniProt Q9H668)
inactive: [2] -0.149 | [3] -0.071 | [4] 0.034 | [5] -0.104 | [6] 0.005 | [7] 0.156 | [8] 0.032 | [9] 0.02 | [10] -0.03 | [11] -0.2 | [12] -0.111 | [13] 0.126 | [1] 0.049

SUCO isoform 2 (UniProt Q9UBS9)
inactive: [5] -0.092 | [7] 0.184 | [10] 0.04 | [13] -0.227 | [1] -0.061

SUN2 isoform 2 (UniProt Q9UH99)
inactive: [14] -0.074 | [15] 0.348 | [5] 0.014 | [7] 0.042 | [8] 0.069 | [9] 0.06 | [10] 0.095 | [11] 0.091 | [12] 0.134 | [13] -0.059 | [1] 0.078

SYCE2 (UniProt Q6PIF2)
inactive: [5] -0.118 | [7] 0.082 | [13] -0.221

TAF3 (UniProt Q5VWG9)
inactive: [2] 0.013 | [3] -0.145 | [4] -0.226 | [6] -0.003 | [8] 0.074

SUFU (UniProt Q9UMX1)
inactive: [5] 0.141 | [7] -0.028 | [8] -0.138 | [10] -0.058 | [13] 0.238

SYNGR2 (UniProt K7EJ35)
inactive: [2] 0.066 | [3] -0.092 | [4] 0.114 | [6] 0.05

STK35 (UniProt Q8TDR2)
inactive: [15] 0.041 | [8] 0.014 | [1] 0.067

TAF1A (UniProt Q15573)
inactive: [2] -0.112 | [3] -0.03 | [4] -0.091 | [6] -0.136 | [10] 0.05

TADA2A (UniProt O75478)
inactive: [2] -0.066 | [3] 0.018 | [4] -0.019 | [5] -0.132 | [6] 0.017 | [7] 0.134 | [9] 0.02 | [11] -0.311 | [12] 0.053 | [13] -0.044

STK26 isoform 3 (UniProt Q9P289)
inactive: [14] 0.181 | [15] -0.028 | [5] 0.093 | [7] 0.203 | [13] 0.014 | [1] 0.116

STK10 (UniProt O94804)
inactive: [14] 0.168 | [15] 0.007 | [5] -0.462 | [7] 0.234 | [9] -0.287 | [11] 0.149 | [12] -0.107 | [13] 0.398

STK3 isoform 2 (UniProt Q13188)
inactive: [2] 0.015 | [3] 0.274 | [14] 0.132 | [4] 0.179 | [15] 0.276 | [5] -0.077 | [6] -0.014 | [8] 0.108 | [9] -0.01 | [10] 0.034 | [11] -0.05 | [12] 0.022 | [13] 0.025 | [1] -0.003

SYNCRIP isoform 3 (UniProt O60506)
inactive: [2] -0.08 | [3] -0.094 | [4] -0.01 | [5] 0.01 | [6] -0.003 | [7] -0.053 | [8] -0.184 | [9] -0.205 | [10] 0.045 | [11] 0.044 | [12] 0.202 | [13] -0.003 | [1] 0.019

SUSD3 (UniProt Q96L08)
inactive: [8] -0.054 | [9] 0.101 | [11] 0.312 | [12] -0.129

SZT2 (UniProt Q5T011)
active: [11] 1.2
inactive: [2] -0.03 | [3] 0.434 | [14] 0.04 | [4] 0.02 | [15] -0.122 | [6] -0.019 | [8] -0.009 | [9] -0.046 | [12] -0.081 | [1] -0.1

3 consecutive records from above:
SYNCRIP isoform 3 (UniProt O60506)
inactive: [2] -0.08 | [3] -0.094 | [4] -0.01 | [5] 0.01 | [6] -0.003 | [7] -0.053 | [8] -0.184 | [9] -0.205 | [10] 0.045 | [11] 0.044 | [12] 0.202 | [13] -0.003 | [1] 0.019

SUSD3 (UniProt Q96L08)
inactive: [8] -0.054 | [9] 0.101 | [11] 0.312 | [12] -0.129

SZT2 (UniProt Q5T011)
active: [11] 1.2
inactive: [2] -0.03 | [3] 0.434 | [14] 0.04 | [4] 0.02 | [15] -0.122 | [6] -0.019 | [8] -0.009 | [9] -0.046 | [12] -0.081 | [1] -0.1

Next records:

SYNGR1 isoform 2 (UniProt O43759)
inactive: [5] -0.059 | [7] 0.144 | [9] -0.329 | [11] -0.25 | [12] 0.138 | [13] -0.029 | [1] -0.034

SUSD1 isoform 2 (UniProt Q6UWL2)
inactive: [14] 0.035 | [15] 0.02 | [5] -0.051 | [7] 0.053 | [9] -0.06 | [11] 0.192 | [12] 0.141 | [13] -0.066 | [1] -0.048

TAF13 (UniProt Q15543)
inactive: [2] 0.066 | [3] 0.011 | [4] -0.079 | [6] -0.042 | [9] -0.016 | [10] 0.099 | [11] 0.271 | [12] -0.034

STK19 (UniProt P49842)
inactive: [2] 0.112 | [3] 0.222 | [14] 0.021 | [4] -0.03 | [15] -0.219 | [5] 0.14 | [6] -0.197 | [7] -0.048 | [13] -0.11

TAF5 (UniProt Q15542)
inactive: [14] -0.078 | [15] 0.009 | [8] -0.119 | [9] 0.049 | [10] 0.001 | [11] 0.107 | [12] -0.076

STK38L (UniProt Q9Y2H1)
active: [3] 0.68 | [7] 0.552
inactive: [2] -0.08 | [14] -0.002 | [4] -0.009 | [15] 0.102 | [5] -0.122 | [6] 0.04 | [9] -0.046 | [11] -0.162 | [12] 0.184 | [13] 0.022 | [1] 0.043

STRADB (UniProt Q9C0K7)
inactive: [9] 0.141 | [11] 0.059 | [12] -0.416

SWSAP1 (UniProt Q6NVH7)
inactive: [2] -0.136 | [3] 0.031 | [14] 0.038 | [4] 0.02 | [15] -0.021 | [6] 0.062 | [9] 0.233 | [11] 0.022 | [12] 0.021

STK16 (UniProt O75716)
inactive: [14] -0.003 | [15] 0.105 | [5] 0.033 | [7] 0.225 | [8] -0.107 | [9] 0.16 | [10] -0.099 | [11] -0.259 | [12] 0.138 | [13] 0.232 | [1] 0.189

STS (UniProt P08842)
inactive: [2] -0.032 | [3] 0.079 | [4] -0.098 | [5] -0.061 | [6] 0.311 | [7] -0.009 | [10] 0.214 | [13] 0.208

STRN3 isoform 2 (UniProt Q13033)
inactive: [14] 0.155 | [15] -0.093

STRN3 (UniProt H0YJT2)
inactive: [14] -0.037 | [15] 0.13 | [1] -0.075

SUGCT isoform 3 (UniProt Q9HAC7)
inactive: [14] -0.25 | [15] 0.103 | [1] 0.139

TAF1C (UniProt Q15572)
inactive: [2] -0.33 | [3] -0.153 | [14] -0.036 | [4] -0.089 | [15] 0.083 | [5] 0.219 | [6] 0.141 | [7] -0.006 | [10] 0.128 | [13] 0.088 | [1] 0.046

STON1 isoform 2 (UniProt Q9Y6Q2)
inactive: [2] 0.295 | [3] -0.212 | [4] -0.006 | [6] 0.095 | [8] -0.008 | [9] -0.095 | [11] 0.263 | [12] -0.132

SVBP (UniProt Q8N300)
inactive: [2] 0.031 | [3] 0.077 | [4] 0.032 | [5] -0.096 | [6] -0.006 | [7] -0.007 | [9] 0.174 | [11] -0.311 | [12] -0.049 | [13] 0.008 | [1] 0.136

STK17A (UniProt Q9UEE5)
inactive: [2] 0.076 | [3] 0.188 | [4] 0.249 | [6] -0.387

SUPT3H (UniProt O75486)
inactive: [5] -0.145 | [7] 0.004 | [8] 0.055 | [9] -0.026 | [11] -0.239 | [12] 0.048 | [13] -0.074 | [1] -0.345

SYTL2 isoform 8 (UniProt Q9HCH5)
inactive: [14] 0.005 | [15] -0.083 | [8] -0.02

— the supplement of paper PMC10849652
